Laboratory results reported in paper PMC12255304.
For at least one entry, the source does not settle the construct or the ends of the probe.

Biological target: FgRlm1-Strep (UniProt I1RY98)
Assay: EMSA
Details: recombinant protein; protein details: C-terminal Strep-tag (modified pET28b)

| Sequence | binding result |
| --- | --- |
| TGATGCTGTTGATGTTGATGCTGTTGATGTTGATGCTGTTGATGT (double strand) [cis-element 1 WT probe (three repeats)] | binds |
| TGCTATTTTTGGTGCTATTTTTGGTGCTATTTTTGG (double strand) [cis-element 2 WT probe (three repeats)] | binds |
